{
  "sequences": {"note": "The chains behind the UniProt entries cited, without tags or fusion partners.", "UniProt Q99755": "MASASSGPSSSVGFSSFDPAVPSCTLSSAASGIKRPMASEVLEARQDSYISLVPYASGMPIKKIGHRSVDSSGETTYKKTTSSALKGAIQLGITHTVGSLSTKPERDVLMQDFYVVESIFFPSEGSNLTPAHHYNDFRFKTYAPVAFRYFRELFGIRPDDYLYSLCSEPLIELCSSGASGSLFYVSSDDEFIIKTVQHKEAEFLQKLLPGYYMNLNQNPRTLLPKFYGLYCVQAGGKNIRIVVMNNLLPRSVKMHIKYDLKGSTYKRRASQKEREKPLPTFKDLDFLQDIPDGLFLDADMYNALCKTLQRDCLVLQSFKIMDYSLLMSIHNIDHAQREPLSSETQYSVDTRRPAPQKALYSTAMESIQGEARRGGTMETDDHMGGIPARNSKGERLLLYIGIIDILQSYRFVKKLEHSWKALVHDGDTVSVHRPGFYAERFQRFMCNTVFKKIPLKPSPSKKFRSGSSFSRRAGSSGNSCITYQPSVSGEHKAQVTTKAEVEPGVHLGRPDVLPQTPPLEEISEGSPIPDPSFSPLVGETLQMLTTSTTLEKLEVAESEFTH"},
  "source": "paper PMC10482388",
  "about": "“A novel homeostatic mechanism tunes PI(4,5)P2-dependent signaling at the plasma membrane” (Journal of Cell Science, 2023)",
  "key": {"[1]": {"target": "FRB-tagged PIP5K1A (bait at ER–PM contact sites) (human) (UniProt Q99755)", "test": "enrichment of the prey at a bait confined to ER–PM contact sites by chemically induced dimerization (TIRFM); NG2–PIP4K2C HEK293A cells transfected with FKBP–CyB5, mCherry–MAPPER and an FRB-tagged bait; 1 µM rapamycin confines the bait to ER–PM contact sites; NG2–PIP4K2C intensity (ER:PM/PM) followed by time-lapse TIRFM"}, "[2]": {"target": "T1, FRB-tagged Mss4 (bait at ER–PM contact sites) (Saccharomyces cerevisiae) (UniProt P38994)", "T1 sequence": "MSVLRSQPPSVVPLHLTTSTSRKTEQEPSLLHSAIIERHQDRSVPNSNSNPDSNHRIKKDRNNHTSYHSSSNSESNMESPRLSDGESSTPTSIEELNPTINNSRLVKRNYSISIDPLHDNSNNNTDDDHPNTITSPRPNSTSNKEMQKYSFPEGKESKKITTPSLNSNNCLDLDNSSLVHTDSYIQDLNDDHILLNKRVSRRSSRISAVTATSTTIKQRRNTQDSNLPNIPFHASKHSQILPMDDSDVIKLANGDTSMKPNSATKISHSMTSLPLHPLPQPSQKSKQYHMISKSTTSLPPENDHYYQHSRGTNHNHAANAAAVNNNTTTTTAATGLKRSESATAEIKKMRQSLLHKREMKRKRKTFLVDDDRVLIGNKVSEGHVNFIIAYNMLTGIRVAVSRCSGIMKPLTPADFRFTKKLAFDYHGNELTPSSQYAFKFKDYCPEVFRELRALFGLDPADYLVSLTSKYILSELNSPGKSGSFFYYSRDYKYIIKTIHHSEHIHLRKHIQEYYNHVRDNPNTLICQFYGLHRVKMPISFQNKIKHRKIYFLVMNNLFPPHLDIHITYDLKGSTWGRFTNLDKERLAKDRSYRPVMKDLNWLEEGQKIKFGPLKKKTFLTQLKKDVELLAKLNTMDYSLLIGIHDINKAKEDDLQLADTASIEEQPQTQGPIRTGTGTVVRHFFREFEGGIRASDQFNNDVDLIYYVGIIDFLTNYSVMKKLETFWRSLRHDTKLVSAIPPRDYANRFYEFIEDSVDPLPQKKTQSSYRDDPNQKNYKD", "test": "enrichment of the prey at a bait confined to ER–PM contact sites by chemically induced dimerization (TIRFM); NG2–PIP4K2C HEK293A cells transfected with FKBP–CyB5, mCherry–MAPPER and an FRB-tagged bait; 1 µM rapamycin confines the bait to ER–PM contact sites; NG2–PIP4K2C intensity (ER:PM/PM) followed by time-lapse TIRFM"}},
  "note": "Results are given in words; binding and its absence hold for the method and conditions named. Some binding calls cover weakened binding; strength is not graded here. Sequences can lack the tags named with a protein.",
  "data": [
    {"binder": "NG2–PIP4K2C, endogenous PIP4K2C tagged with split NeonGreen2 (enzyme, UniProt Q8TBX8 1-421) MASSSVPPATVSAATAGPGPGFGFASKTKKKHFVQQKVKVFRAADPLVGVFLWGVAHSINELSQVPPPVMLLPDDFKASSKIKVNNHLFHRENLPSHFKFKEYCPQVFRNLRDRFGIDDQDYLVSLTRNPPSESEGSDGRFLISYDRTLVIKEVSSEDIADMHSNLSNYHQYIVKCHGNTLLPQFLGMYRVSVDNEDSYMLVMRNMFSHRLPVHRKYDLKGSLVSREASDKEKVKELPTLKDMDFLNKNQKVYIGEEEKKIFLEKLKRDVEFLVQLKIMDYSLLLGIHDIIRGSEPEEEAPVREDESEVDGDCSLTGPPALVGSYGTSPEGIGGYIHSHRPLGPGEFESFIDVYAIRSAEGAPQKEVYFMGLIDILTQYDAKKKAAHAAKTVKHGAGAEISTVHPEQYAKRFLDFITNIFA", "values": [
      {"measurement": "binding", "setting": "[1]", "value": "binds"},
      {"measurement": "binding", "setting": "[2]", "value": "no binding"}
    ]}
  ]
}
